The text below walks through data of PubChem BioAssay AID1347423 (Functional Genomics Laboratory (NCATS/FGL), 2020).

Among all 52,000 sequences or so, about 210 (0.4%) were called active.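 The calls were made as follows: active = gene whose silencing raises cell survival under the drug, median off-target-corrected z-score across its silencing RNAs 2 or more; inactive = the rest.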 The list shows a part of the results.

The test is described as follows: Resistance to Poly (ADP-Ribose) Polymerase inhibitor: Gene Identification via Genome-wide siRNA Screen. The note with it: mouse BRCA2 R2336H ES cells, olaparib, CellTiter-Glo viability; active compounds read high. In outline:
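Genome-wide siRNA screen (3 siRNAs/gene, 20 nM) in mouse ES cells carrying hypomorphic BRCA2 R2336H; olaparib 500 nM added 48 h post-transfection, CellTiter-Glo viability 72 h later. Normalized to plate-median negative control; MAD z-scores, gene median, seed-adjusted.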
For orientation: Cellular ATP, detected with luciferase, serves as a proxy for viable cell number.
Regarding CCUUUGUAUUUGACGUGUATT against Idb4, the z-score is inactive: 0.0721.
In the case of “CCAUCACCGAAGCAUUAAATT against 4930504O13Rik” it was inactive: 0.308; in that of GGGAAAUGAGUUUCUACCGTT against Ebna1bp2, inactive: 0.162; in that of GGGAUUUUUUAUUAAGCCCTT against Foxg1, inactive: -1.12.
In the case of CCACUCAUUGUUCAUGGAATT against Olfr1490 it was inactive: 0.476; in that of GGAGCUUGAAAUUGUCAUUTT against Magoh, inactive: -2.64; in that of GGGACAUGAGUAACUGAUGTT against Dhx8, inactive: 0.0939.
Turning to GGUAGUGUGAAAAUCCUGGTT against Bst1, the z-score was inactive: 1.52.
For the sequence GGACUCUUCUGAACUCUACTT against Ifna13, the z-score was inactive: 0.549.
In the case of “CCCACUGGAAGAUUCAAACTT against 2610029D06Rik” it was inactive: 0.289.
In the case of GGACAUGUUCAACUCCUUCTT against Ppp4r1 it was inactive: 0.412.
GGGCUUUCACACAAUCCCUTT against Kcns1: the z-score was inactive: 1.47.
In the case of CCAAAACUUGGGCAUGUGCTT against Olfr94 it was inactive: -0.326; in that of GGUUCUUGGAUAAAUCAAGTT against Mrpl40, inactive: 1.81.
In the case of GGGAGUGCCCAUCAUUGUUTT against Rhod it was inactive: 0.543.
In the case of “GGAAUCGAGAAUUACUACGTT against 2700063A19Rik” it was inactive: 1.37; in that of GGCUAAUUCUGGCUUACGATT against Wfdc5, inactive: 0.282.
Regarding GGGUCUUCCUUUCCUAUGATT against Msi2h, the z-score was inactive: -0.319.
In the case of GCAUCUGUAAUGAACUGGUTT against Mrpl10 it was inactive: -0.84.
In the case of “GGCAUCUUAUUUCUUGUUATT against 3110043L15Rik” it was inactive: 1.16; in that of GGGCUGGCUACGAUAAGCUTT against Tes, inactive: -0.442.
In the case of GGGUCAGAAUGUUACCAAATT against Cdc27 it was inactive: -3.33.
In the case of GGGCUACUCAGCCUAUAGUTT against Accn4, the z-score was inactive: -0.0201.
In the case of GGCGAAUGUGUGAAGAGGCTT against H2-Q5 it was inactive: 1.33; in that of GGUUAGCAACAUUAAGAAGTT against Cops7b, inactive: -0.294; in that of GGAGAAAAACUUCUGGAACTT against Wdr41, inactive: 0.825.
With GCGAAAGAAGGUGAUUAUGTT against Cyp26a1, the z-score was inactive: -1.2.
In the case of GGACUUUGUCAACCUGAUGTT against Rhbdl4 it was inactive: 0.37; in that of GGUAGUUUGAAAUGCUAACTT against St6gal2, inactive: 1.79; in that of GGUGACAAUUCAAAACUCATT against Fgf18, inactive: -0.89.
For GCCAAACUGCGUCUGAAUGTT against Rras, the z-score is inactive: -0.211.
Regarding GCUUAACAACUACGAGCCCTT against Dot1l, the z-score is inactive: -0.469.
In the case of GGAACUCACAACUAUGAGCTT against Pla2g10 it was inactive: -0.635; in that of GCCGCUUAUAUGUAUCGCUTT against Acdc, inactive: -0.197.
In the case of GGGAGAUAGGCAUUUGAUGTT against Arid3a it was inactive: 0.762.
In the case of “GGUUCUCGCUCUUAUCUGUTT against D1Ertd396e” it was inactive: -0.296.
With GGGUAGGAGGAAAGUGUUCTT against Olfr1093, the z-score was inactive: 1.78.
In the case of GGCAUUUCUUCCAGAUAUUTT against Il1r1 it was inactive: 2.44.
In the case of GGGCAAAGGUCAGUACUUGTT against Col8a2 it was inactive: -0.0431; in that of CGACGUGAGUUAAUGCUGCTT against AI449441, inactive: -1.15.
In the case of “GGAGCUCCUUUACUGAAGGTT against 3110070M22Rik” it was inactive: -0.302; in that of GCAUAAGGUUUGUGACAUUTT against Wrnip1, inactive: 2.39.
In the case of “GGUGGGUACUGAAAGCCCATT against 4922504M18Rik”, the z-score is inactive: 0.904.
In the case of CCAUACGAUGACUGAAUUCTT against Olfr1186 it was inactive: 0.672.
In the case of GGUUCAAAGCUAUCCACUUTT against Rlbp1, the z-score is inactive: 0.365.
In the case of GGCUGAGCCAUUUGACAGATT against AU041783 it was inactive: -0.706.
In the case of GCAAGCGAUGGCACAUAGATT against Ap1g2 it was inactive: -0.948; in that of “CGAAGCUAAAGGAUAUAGATT against 1110025H10Rik”, inactive: 0.236; in that of GGCGAAGUGUCAUUGUAUUTT against Foxd3, inactive: -1.63.
GGGACUUUUUUUGAAUCCUTT against Ndrg3: the z-score was inactive: 0.835.
Turning to GGAGUCUUCGAAAAUUGAGTT against Pmfbp1, the z-score is inactive: 0.278.
In the case of GGAGAUUUUGGUGGCUAUUTT against Uqcrfs1 it was inactive: -2.64; in that of “GCGAUUUCUCUAAAUGGCUTT against 5031414D18Rik”, inactive: 2.69; in that of “GCAACUCUAACUUAUAAGATT against 6030446I19Rik”, inactive: 0.225.
In the case of CGAGAUGUACCUUGAUACUTT against Idh3a it was inactive: 0.889; in that of GGCUAAUGAACCACUUUUUTT against LOC217066, inactive: -0.423; in that of CCCUCUCUUUUAUAGAUGATT against Ap3s2, inactive: -0.0194.
In the case of “GCAUCUCACUCGUAAAGGUTT against 4732406D01Rik” it was inactive: -0.389; in that of “CCAAGCAUAUGUGGUUGUUTT against 5330440M15Rik”, inactive: -0.961; in that of CCCACCACUUUCCGAAAAUTT against Pacrg, inactive: 0.694.
CCUGGUGCGUUCAUUCCUGTT against BC005662: the z-score was inactive: -0.225.
As for GCUUCCUUAUAGAAUUAGATT against BC033609, the z-score is inactive: 1.03.
With GGAAUUUAUCAAGGUCAUGTT against Ethe1, the z-score was inactive: -0.685.
In the case of CGCAUAUCAAAACUCAGAATT against Mtm1 it was inactive: 0.354; in that of “GGGUAGCCAAACAAAGACATT against G630055P03Rik”, inactive: -1.6.
In the case of “GCAGCUCUCAACAGUUAUATT against 2310066N05Rik” it was inactive: -0.667; in that of “GGUUUUGUGAGGAGGCCAGTT against 1700001E04Rik”, inactive: -0.915.
In the case of “GGAAAAAAAGGUAGCUGGATT against D10Bwg0791e”, the z-score was inactive: 2.18.
For “GGACCCUGCUUUCUCUGCUTT against D230039L06Rik”, the z-score was inactive: -1.16.
Consider “GGGACUUAAGGAGAGAAAUTT against E330028A19Rik”, for which the z-score is inactive: -0.925.
In the case of GGAUGAUAUUGAAAGUCUGTT against Me2 it was inactive: 0.313; in that of GGUCAAGAAGAACAAGCUGTT against Ucn3, inactive: -0.569; in that of GGAGCUUCGAAACUACAUGTT against Hspa5bp1, inactive: 1.14.
In the case of CCCAGUAUUUUGGAACUAUTT against Napsa it was inactive: 1.78.
In the case of GCCCAAAGGUCAAGGAUAUTT against Rptn it was inactive: -1.95; in that of GAAGCUGUCCAAGUACGAGTT against Atoh7, inactive: -0.677.
As to CCGAAUGAUCAUCACACUGTT against V1rc15, the z-score is inactive: 1.96.
In the case of “GCCUGAGACCCUAGAUGCUTT against 2810405K07Rik” it was inactive: -0.866.
For the sequence “GGGUUUGUGUUUAGUGAAUTT against 2310047O13Rik”, the z-score is inactive: -1.29.
Take GGGAGUCAAGCUGUUUGCUTT against Col7a1: the z-score is inactive: 1.95.
In the case of GCACUUUACGAGUAUGUAATT against Gna-rs1 it was inactive: -0.529; in that of “CCUAGUUCCCAAAGAGUGGTT against C130096D04Rik”, inactive: -0.584.
“CCAAGGGAAGAUUCAAAUUTT against D930031B21Rik”: the z-score is inactive: -1.19.
In the case of CCCACUGGUGUACGUGAUCTT against Bdkrb2 it was inactive: 1.92; in that of GGGCCAUGGAAUUGUAAGATT against Mobp, inactive: 0.372; in that of GGAUUUGAAGUCACUCAUUTT against Nubp1, inactive: -0.732.
For the sequence CCGUUCCAUCAUUAAGACCTT against Stk22b, the z-score was inactive: 0.159.
In the case of “GGUAUUUGGAGUACCCUUUTT against 6530401L14Rik” it was inactive: 0.892; in that of GCCAACCUGAAACCAUCUATT against Ptprg, inactive: 0.75.
For GGGACUUUGAGUCUAACAATT against Pnliprp1, the z-score is inactive: -2.28.
In the case of GCAAUGGAUACAGGACCUUTT against Nupr1 it was inactive: -0.692; in that of GCCAACGAAAAAUGACCUCTT against Wnt2, inactive: -0.201.
In the case of GGACUCCAAGAAUUUAACATT against Fbxo22 it was inactive: -0.397.
In the case of GGAUGAACUUAGCUACCCATT against Slc25a20, the z-score was inactive: 1.89.
On to GGUUCAAAUGUUGCAUAGUTT against Klrc2, for which the z-score is inactive: -0.81.
In the case of GGUGAAACCUGUCAUUCACTT against Dcdc2 it was inactive: 0.442; in that of GGUGAUUGCAUACCUAUGATT against Irs4, inactive: -1.64; in that of GGAUCAAUGCCCGACUACATT against Phf14, inactive: -2.73.
In the case of CUUUAUGGGUCGUGGAGGATT against Hnrpa3 it was inactive: 0.154; in that of GCCUGCGUCUUGUUCUGAGTT against Agtr1, inactive: -1.14; in that of GGACACUCUUCCAAAUACATT against BC033606, inactive: -0.317.
In the case of GGAAGUGUUUCACGUGGAATT against Uhrf1 it was inactive: 1.73; in that of “GGACUAGUCCUAAGAAGAGTT against 1700012H05Rik”, inactive: -1.71.
